Drawing on article doi:10.1101/681668 (bioRxiv, 2019), this text covers binding for two molecules.

Chains of the proteins cited; added tags and fusions are not shown.
UniProt P62136: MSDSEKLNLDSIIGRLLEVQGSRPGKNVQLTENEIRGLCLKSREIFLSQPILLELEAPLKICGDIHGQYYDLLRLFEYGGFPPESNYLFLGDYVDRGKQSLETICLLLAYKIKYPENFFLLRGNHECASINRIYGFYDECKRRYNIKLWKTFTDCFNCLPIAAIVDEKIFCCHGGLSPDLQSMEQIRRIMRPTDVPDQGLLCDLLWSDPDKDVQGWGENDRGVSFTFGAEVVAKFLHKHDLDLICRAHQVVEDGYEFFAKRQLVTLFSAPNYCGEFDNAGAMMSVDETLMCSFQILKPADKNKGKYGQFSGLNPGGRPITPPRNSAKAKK

The target of this assay is T7-PP1α (UniProt P62136). The experiment in a line: co-IP.

Results are given in words; binding and its absence hold for the method and conditions named. In cells and extracts the contact can be indirect. Some results given as binding are weak or reduced against the parent protein; the word gives no strength. Where a sequence is shown, tags or fusion partners need not be part of it.

B1: GFP-ORC1 Δ260-280 (HEK293, transient) (protein, UniProt Q13415)
chain: MAHYPTRLKTRKTYSWVGRPLLDRKLHYQTYREMCVKTEGCSTEIHIQIGQFVLIEGDDDENPYVAKLLELFEDDSDPPPKKRARVQWFVRFCEVPACKRHLLGRKPGAQEIFWYDYPACDSNINAETIIGLVRVIPLAPKDVVPTNLKNEKTLFVKLSWNEKKFRPLSSELFAELNKPQESAAKCQKPVRAKSKSAESPSWTPAEHVAKRIESRHSASKSRQTPTHPLTPRARKRLELGNLGNPQMSQQTSCASLDSPDKLQTLSPALKAPEKTRETGLSYTEDDKKASPEHRIILRTRIAASKTIDIREERTLTPISGGQRSSVVPSVILKPENIKKRDAKEAKAQNEATSTPHRIRRKSSVLTMNRIRQQLRFLGNSKSDQEEKEILPAAEISDSSSDEEEASTPPLPRRAPRTVSRNLRSSLKSSLHTLTKVPKKSLKPRTPRCAAPQIRSRSLAAQEPASVLEEARLRLHVSAVPESLPCREQEFQDIYNFVESKLLDHTGGCMYISGVPGTGKTATVHEVIRCLQQAAQANDVPPFQYIEVNGMKLTEPHQVYVQILQKLTGQKATANHAAELLAKQFCTRGSPQETTVLLVDELDLLWTHKQDIMYNLFDWPTHKEARLVVLAIANTMDLPERIMMNRVSSRLGLTRMCFQPYTYSQLQQILRSRLKHLKAFEDDAIQLVARKVAALSGDARRCLDICRRATEICEFSQQKPDSPGLVTIAHSMEAVDEMFSSSYITAIKNSSVLEQSFLRAILAEFRRSGLEEATFQQIYSQHVALCRMEGLPYPTMSETMAVCSHLGSCRLLLVEPSRNDLLLRVRLNVSQDDVLYALKDE
Take B1: the binding entry was “no binding”.

B2: GFP-ORC1 WT (HEK293, transient) (protein, UniProt Q13415 1-861)
chain: MAHYPTRLKTRKTYSWVGRPLLDRKLHYQTYREMCVKTEGCSTEIHIQIGQFVLIEGDDDENPYVAKLLELFEDDSDPPPKKRARVQWFVRFCEVPACKRHLLGRKPGAQEIFWYDYPACDSNINAETIIGLVRVIPLAPKDVVPTNLKNEKTLFVKLSWNEKKFRPLSSELFAELNKPQESAAKCQKPVRAKSKSAESPSWTPAEHVAKRIESRHSASKSRQTPTHPLTPRARKRLELGNLGNPQMSQQTSCASLDSPGRIKRKVAFSEITSPSKRSQPDKLQTLSPALKAPEKTRETGLSYTEDDKKASPEHRIILRTRIAASKTIDIREERTLTPISGGQRSSVVPSVILKPENIKKRDAKEAKAQNEATSTPHRIRRKSSVLTMNRIRQQLRFLGNSKSDQEEKEILPAAEISDSSSDEEEASTPPLPRRAPRTVSRNLRSSLKSSLHTLTKVPKKSLKPRTPRCAAPQIRSRSLAAQEPASVLEEARLRLHVSAVPESLPCREQEFQDIYNFVESKLLDHTGGCMYISGVPGTGKTATVHEVIRCLQQAAQANDVPPFQYIEVNGMKLTEPHQVYVQILQKLTGQKATANHAAELLAKQFCTRGSPQETTVLLVDELDLLWTHKQDIMYNLFDWPTHKEARLVVLAIANTMDLPERIMMNRVSSRLGLTRMCFQPYTYSQLQQILRSRLKHLKAFEDDAIQLVARKVAALSGDARRCLDICRRATEICEFSQQKPDSPGLVTIAHSMEAVDEMFSSSYITAIKNSSVLEQSFLRAILAEFRRSGLEEATFQQIYSQHVALCRMEGLPYPTMSETMAVCSHLGSCRLLLVEPSRNDLLLRVRLNVSQDDVLYALKDE
As to B2, the binding entry is listed as “binds”.
